Some of the results follow.
Each target was assayed with COc1cc2ncnc(Nc3ccc(F)c(Cl)c3)c2cc1OCCCN1CCOCC1 [gefitinib] (assay: log2 fold change, soluble protein after heating vs DMSO (PISA); higher = thermal stabilisation; K562 lysate, 10 uM; active = over 0.2 and 3.5 SD of the protein, either way, in both replicates (recomputed)).
In short: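 Soluble protein was defined as the supernatant remaining after 21,000xg for 90 min, following pooling of heated aliquots and adjustment to 0.5% NP-40 at 4°C. Before that, crude K562 extract at 1 mg/mL protein in PBS pH 7.4 with 1 mM MgCl2 was treated with 10 μM compound for 30 min and heated for 3 min across 48°C-58°C. Quantification used TMTpro 16plex LC-MS/MS with channel sums equalised, and values are log-two fold changes in thermal stability relative to solvent controls from duplicates.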

The chains behind the UniProt entries cited, without tags or fusion partners. Where a name states a change or a piece, a line headed by the entry shows the natural chain unless it says otherwise.
UniProt Q8N2U9: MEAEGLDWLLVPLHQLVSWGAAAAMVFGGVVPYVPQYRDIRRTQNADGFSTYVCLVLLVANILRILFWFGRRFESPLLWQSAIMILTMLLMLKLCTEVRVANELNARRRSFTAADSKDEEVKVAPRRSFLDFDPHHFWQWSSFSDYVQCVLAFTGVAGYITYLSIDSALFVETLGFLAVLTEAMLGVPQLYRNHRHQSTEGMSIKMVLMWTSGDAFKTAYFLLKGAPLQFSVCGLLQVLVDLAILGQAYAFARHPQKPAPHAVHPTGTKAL
UniProt Q8NEW0: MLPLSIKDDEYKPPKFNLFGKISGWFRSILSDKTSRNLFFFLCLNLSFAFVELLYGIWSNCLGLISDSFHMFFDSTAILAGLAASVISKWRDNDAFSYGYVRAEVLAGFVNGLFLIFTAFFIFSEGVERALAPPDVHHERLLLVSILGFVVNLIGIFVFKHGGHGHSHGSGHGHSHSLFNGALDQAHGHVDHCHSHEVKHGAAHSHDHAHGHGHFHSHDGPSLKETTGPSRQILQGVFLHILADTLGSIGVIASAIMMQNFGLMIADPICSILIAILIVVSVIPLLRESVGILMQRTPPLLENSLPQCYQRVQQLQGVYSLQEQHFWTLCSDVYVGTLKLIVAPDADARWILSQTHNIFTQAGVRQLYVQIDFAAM
UniProt P78382: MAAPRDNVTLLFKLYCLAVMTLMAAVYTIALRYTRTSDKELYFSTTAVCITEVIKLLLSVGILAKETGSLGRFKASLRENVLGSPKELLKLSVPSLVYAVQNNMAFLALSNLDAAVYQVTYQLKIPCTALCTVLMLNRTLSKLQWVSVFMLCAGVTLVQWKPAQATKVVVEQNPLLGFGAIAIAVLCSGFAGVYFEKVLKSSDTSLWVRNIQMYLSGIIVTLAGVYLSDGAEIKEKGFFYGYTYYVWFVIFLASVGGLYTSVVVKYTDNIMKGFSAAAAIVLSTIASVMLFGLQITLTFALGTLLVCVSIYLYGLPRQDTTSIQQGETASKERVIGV
UniProt Q9Y2E8: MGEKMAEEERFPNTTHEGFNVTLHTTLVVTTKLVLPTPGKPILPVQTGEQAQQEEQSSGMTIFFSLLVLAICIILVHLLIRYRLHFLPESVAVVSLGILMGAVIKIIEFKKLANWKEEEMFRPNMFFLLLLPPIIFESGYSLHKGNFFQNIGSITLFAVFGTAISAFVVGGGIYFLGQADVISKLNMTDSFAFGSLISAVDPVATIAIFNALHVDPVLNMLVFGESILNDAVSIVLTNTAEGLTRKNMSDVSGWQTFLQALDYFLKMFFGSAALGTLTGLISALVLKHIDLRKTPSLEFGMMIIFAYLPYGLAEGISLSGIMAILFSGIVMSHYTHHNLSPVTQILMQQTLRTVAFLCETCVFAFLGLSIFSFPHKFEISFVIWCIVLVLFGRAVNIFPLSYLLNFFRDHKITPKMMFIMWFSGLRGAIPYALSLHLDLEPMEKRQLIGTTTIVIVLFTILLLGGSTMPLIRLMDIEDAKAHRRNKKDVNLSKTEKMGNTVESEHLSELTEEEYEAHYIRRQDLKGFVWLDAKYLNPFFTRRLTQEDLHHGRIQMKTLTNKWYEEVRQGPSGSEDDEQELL
UniProt P16260: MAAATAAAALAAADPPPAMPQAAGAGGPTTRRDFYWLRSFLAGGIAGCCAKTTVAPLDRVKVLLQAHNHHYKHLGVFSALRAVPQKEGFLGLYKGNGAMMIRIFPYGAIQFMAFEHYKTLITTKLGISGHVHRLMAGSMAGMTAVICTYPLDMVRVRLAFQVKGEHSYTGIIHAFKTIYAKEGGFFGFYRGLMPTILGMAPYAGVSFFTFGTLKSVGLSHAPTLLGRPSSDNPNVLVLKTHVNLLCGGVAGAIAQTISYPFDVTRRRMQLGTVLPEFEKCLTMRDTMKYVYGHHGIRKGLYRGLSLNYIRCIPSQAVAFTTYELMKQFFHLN
UniProt Q96BD0: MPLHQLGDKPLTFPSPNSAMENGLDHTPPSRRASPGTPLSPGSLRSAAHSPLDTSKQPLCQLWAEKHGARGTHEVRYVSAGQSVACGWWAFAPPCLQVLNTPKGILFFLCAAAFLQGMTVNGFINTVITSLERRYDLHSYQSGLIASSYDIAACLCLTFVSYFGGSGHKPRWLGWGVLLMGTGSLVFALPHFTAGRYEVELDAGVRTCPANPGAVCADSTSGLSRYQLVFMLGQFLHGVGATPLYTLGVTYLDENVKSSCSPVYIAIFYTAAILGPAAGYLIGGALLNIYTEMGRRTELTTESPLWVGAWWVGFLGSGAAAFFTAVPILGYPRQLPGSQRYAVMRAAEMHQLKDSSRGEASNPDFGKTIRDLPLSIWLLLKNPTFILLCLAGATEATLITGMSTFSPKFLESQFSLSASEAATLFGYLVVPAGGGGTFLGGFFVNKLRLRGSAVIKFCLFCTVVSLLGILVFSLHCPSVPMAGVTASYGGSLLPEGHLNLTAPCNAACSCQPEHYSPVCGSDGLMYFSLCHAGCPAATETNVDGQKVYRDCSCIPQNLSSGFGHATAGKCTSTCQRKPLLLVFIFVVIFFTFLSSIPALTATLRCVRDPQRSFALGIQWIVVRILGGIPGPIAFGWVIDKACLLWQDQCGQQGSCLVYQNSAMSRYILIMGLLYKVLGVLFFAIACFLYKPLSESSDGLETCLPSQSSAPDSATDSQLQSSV
UniProt Q8IVJ1: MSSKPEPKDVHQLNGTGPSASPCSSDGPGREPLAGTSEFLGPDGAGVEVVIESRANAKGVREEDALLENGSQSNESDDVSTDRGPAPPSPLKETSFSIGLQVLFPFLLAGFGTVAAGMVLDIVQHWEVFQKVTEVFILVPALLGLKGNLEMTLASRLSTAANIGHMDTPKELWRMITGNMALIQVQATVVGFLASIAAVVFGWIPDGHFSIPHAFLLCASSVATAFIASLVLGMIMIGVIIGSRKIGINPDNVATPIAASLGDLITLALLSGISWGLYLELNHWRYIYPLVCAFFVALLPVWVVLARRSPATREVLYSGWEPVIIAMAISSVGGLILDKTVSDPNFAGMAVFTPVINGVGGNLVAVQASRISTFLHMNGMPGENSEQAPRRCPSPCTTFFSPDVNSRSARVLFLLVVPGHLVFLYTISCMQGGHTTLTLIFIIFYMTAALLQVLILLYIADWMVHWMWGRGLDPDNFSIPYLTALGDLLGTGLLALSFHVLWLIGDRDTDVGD
UniProt Q96A29: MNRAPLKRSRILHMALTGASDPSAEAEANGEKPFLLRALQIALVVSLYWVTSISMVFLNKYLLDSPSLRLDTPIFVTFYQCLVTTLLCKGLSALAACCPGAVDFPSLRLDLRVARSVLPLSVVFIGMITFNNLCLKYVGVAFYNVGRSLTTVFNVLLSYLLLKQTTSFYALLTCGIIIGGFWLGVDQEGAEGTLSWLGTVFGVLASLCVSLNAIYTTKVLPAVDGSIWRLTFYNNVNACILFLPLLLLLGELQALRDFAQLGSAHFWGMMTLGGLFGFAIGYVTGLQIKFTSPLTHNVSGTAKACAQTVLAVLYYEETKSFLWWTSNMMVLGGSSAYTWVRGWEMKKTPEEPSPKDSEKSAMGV
UniProt Q96GZ6: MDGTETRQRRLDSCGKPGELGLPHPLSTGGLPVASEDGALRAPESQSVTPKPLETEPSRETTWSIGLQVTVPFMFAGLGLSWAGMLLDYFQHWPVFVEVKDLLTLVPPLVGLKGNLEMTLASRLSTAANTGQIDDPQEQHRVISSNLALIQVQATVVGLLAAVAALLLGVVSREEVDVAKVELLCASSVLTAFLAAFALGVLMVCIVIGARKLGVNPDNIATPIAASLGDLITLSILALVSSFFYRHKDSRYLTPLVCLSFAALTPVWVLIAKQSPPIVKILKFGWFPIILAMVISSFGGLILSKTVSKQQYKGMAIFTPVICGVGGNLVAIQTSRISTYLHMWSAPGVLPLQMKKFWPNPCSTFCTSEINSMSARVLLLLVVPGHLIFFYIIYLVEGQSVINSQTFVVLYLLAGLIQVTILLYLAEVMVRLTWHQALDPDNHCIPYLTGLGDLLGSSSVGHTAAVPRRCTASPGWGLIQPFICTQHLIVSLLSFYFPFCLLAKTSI
UniProt Q99717: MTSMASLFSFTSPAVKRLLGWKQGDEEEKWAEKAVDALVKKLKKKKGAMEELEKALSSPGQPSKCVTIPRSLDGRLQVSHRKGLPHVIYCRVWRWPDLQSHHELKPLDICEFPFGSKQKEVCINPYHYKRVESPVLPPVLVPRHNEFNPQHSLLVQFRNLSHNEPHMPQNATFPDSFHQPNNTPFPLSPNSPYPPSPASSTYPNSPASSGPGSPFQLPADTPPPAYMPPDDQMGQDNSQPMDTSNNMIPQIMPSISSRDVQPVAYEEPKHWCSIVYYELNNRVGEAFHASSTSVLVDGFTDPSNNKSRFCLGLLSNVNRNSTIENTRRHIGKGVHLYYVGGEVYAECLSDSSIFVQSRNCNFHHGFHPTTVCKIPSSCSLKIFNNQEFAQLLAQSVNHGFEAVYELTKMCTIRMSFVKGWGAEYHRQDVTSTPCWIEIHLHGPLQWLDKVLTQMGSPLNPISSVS
UniProt Q6ZP29: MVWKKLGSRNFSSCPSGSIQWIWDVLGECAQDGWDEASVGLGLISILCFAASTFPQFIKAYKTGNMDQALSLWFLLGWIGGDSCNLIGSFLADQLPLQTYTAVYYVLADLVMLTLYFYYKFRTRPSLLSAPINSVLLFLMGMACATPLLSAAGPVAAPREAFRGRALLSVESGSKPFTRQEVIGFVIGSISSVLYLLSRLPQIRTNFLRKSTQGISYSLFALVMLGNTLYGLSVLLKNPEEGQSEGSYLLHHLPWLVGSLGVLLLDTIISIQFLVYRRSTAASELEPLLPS
UniProt Q13433: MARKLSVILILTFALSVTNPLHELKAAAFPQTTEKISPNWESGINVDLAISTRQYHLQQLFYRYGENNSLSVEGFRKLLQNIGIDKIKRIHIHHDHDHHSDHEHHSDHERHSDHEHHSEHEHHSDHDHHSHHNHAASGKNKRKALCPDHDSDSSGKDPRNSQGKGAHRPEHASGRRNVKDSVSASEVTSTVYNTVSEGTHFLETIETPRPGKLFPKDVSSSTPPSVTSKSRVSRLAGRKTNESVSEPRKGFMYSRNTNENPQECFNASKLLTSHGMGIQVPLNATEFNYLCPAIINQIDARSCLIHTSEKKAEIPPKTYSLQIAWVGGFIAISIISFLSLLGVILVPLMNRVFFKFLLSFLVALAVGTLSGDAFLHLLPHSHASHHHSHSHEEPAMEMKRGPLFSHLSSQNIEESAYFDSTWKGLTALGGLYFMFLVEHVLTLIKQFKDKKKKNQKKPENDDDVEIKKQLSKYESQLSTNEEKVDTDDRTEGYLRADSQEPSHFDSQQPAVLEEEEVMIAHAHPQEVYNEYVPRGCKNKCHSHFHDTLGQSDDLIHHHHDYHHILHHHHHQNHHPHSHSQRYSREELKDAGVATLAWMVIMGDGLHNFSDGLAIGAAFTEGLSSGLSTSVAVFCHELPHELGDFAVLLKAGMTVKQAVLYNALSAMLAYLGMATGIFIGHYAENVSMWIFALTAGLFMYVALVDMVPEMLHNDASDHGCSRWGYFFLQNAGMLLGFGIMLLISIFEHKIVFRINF
UniProt Q9NVC3: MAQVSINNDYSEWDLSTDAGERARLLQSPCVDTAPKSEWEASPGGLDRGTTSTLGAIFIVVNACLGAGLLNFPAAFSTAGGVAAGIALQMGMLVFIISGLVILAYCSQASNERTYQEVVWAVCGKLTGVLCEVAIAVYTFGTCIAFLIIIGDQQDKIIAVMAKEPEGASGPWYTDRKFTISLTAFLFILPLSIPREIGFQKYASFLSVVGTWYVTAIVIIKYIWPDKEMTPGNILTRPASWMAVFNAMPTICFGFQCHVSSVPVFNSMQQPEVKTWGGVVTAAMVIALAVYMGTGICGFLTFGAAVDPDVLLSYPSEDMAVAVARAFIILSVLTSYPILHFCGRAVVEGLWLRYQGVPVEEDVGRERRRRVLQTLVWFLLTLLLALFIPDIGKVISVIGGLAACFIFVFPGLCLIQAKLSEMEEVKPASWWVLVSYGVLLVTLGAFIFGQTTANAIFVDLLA
UniProt Q9BZJ4: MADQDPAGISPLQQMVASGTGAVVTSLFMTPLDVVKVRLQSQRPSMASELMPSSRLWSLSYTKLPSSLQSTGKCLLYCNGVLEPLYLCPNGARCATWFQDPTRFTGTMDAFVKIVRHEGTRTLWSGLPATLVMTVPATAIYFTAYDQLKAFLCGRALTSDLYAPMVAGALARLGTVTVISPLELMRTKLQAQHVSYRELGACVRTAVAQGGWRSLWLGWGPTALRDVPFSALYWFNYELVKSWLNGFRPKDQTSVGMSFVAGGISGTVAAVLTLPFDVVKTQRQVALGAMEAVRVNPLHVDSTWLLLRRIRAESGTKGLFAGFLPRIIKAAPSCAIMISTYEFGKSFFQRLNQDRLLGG

log2 fold change, inactive:
SLC66A2 (UniProt Q8N2U9) 0.187, SLC30A7 (UniProt Q8NEW0) 0.203, SLC35A1 (UniProt P78382) -0.036, SLC9A8 isoform 2 (UniProt Q9Y2E8) 0.09, SLC3A2 (UniProt F5H867) 0.1, SMAD3 (UniProt P84022) -0.006, SLC25A16 (UniProt P16260) 0.004, SLCO4A1 (UniProt Q96BD0) -0.001, SLC41A1 (UniProt Q8IVJ1) 0.153, SLC35C1 (UniProt Q96A29) 0.157, SLC29A3 (UniProt Q9BZD2) -0.027, SLC41A3 isoform 9 (UniProt Q96GZ6) -0.123, SMAD5 (UniProt Q99717) -0.007, SLC66A1 (UniProt Q6ZP29) -0.169, SLC39A6 (UniProt Q13433) -0.09, SLC38A7 (UniProt Q9NVC3) -0.06, SLC25A39 (UniProt Q9BZJ4) -0.149

Source: the supplement of paper PMC10849652
